No constants are given. Whether binding was seen depends on the method and setting. Binding seen in cells or lysates may run through a third protein. Some results given as binding are weak or reduced against the parent protein; the word gives no strength. Where a sequence is shown, tags or fusion partners need not be part of it.
B1: HA-tagged AKR1C1 (aldo-keto reductase family 1 member C1) (enzyme, UniProt Q04828 1-323)
chain: MDSKYQCVKLNDGHFMPVLGFGTYAPAEVPKSKALEATKLAIEAGFRHIDSAHLYNNEEQVGLAIRSKIADGSVKREDIFYTSKLWCNSHRPELVRPALERSLKNLQLDYVDLYLIHFPVSVKPGEEVIPKDENGKILFDTVDLCATWEAVEKCKDAGLAKSIGVSNFNRRQLEMILNKPGLKYKPVCNQVECHPYFNQRKLLDFCKSKDIVLVAYSALGSHREEPWVDPNSPVLLEDPVLCALAKKHKRTPALIALRYQLQRGVVVLAKSYNEQRIRQNVQVFEFQLTSEEMKAIDGLNRNVRYLTLDIFAGPPNYPFSDEY
B2: SIRT2 from PC-9 cell lysates (enzyme, UniProt Q8IXJ6 1-389)
chain: MAEPDPSHPLETQAGKVQEAQDSDSDSEGGAAGGEADMDFLRNLFSQTLSLGSQKERLLDELTLEGVARYMQSERCRRVICLVGAGISTSAGIPDFRSPSTGLYDNLEKYHLPYPEAIFEISYFKKHPEPFFALAKELYPGQFKPTICHYFMRLLKDKGLLLRCYTQNIDTLERIAGLEQEDLVEAHGTFYTSHCVSASCRHEYPLSWMKEKIFSEVTPKCEDCQSLVKPDIVFFGESLPARFFSCMQSDFLKVDLLLVMGTSLQVQPFASLISKAPLSTPRLLINKEKAGQSDPFLGMIMGLGGGMDFDSKKAYRDVAWLGECDQGCLALAELLGWKKELEDLVRREHASIDAQSGAGVPNPSTSASPKKSPPPAKDEARTTEREKPQ

The chains behind the UniProt entries cited, without tags or fusion partners.
UniProt Q9UBN7: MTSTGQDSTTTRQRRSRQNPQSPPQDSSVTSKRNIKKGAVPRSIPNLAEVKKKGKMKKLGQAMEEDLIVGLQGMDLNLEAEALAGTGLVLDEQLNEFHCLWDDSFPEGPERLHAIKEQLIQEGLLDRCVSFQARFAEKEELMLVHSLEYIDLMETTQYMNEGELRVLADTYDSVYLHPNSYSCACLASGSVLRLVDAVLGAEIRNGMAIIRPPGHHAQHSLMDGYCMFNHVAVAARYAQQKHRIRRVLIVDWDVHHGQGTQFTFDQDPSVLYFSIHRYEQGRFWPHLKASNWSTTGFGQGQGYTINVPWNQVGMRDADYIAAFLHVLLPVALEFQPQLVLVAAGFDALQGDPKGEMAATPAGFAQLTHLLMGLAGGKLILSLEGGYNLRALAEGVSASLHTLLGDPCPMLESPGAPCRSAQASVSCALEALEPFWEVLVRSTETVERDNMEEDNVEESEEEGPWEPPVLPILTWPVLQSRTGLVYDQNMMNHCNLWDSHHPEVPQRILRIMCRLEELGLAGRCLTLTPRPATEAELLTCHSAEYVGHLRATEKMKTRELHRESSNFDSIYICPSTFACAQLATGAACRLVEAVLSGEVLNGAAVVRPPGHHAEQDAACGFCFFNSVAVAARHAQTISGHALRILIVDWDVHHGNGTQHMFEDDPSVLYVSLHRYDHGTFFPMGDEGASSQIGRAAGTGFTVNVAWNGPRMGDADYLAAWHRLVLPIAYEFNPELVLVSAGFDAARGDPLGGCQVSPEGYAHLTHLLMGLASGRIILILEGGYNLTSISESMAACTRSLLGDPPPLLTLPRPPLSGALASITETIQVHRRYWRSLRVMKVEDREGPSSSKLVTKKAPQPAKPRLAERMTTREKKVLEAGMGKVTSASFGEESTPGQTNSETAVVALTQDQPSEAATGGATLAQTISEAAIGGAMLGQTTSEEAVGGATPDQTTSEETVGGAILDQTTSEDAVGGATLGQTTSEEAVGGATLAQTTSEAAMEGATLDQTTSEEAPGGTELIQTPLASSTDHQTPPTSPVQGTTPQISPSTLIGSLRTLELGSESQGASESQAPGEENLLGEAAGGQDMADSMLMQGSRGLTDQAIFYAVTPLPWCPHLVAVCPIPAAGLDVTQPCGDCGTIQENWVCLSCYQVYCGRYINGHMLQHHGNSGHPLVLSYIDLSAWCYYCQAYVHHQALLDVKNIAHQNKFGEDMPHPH

Legend:
[1] = molecular target: T1, GST-AKR1C1 (glutathione S-transferase-tagged AKR1C1 fusion protein) (human) (UniProt Q04828); experiment: pull-down; purified GST-AKR1C1 fusion protein with NSCLC PC-9 cell lysates; only the target purified
T1 sequence: B1 chain

[2] = molecular target: T2, Flag-tagged SIRT2 (Sirtuin 2) (UniProt Q8IXJ6); experiment: co-IP; NCI-H1299 cells transfected with HA-tagged AKR1C1 and Flag-tagged SIRT2, singly or in combination; IP and Western blot
T2 sequence: B2 chain

[3] = molecular target: T2, Flag-tagged SIRT2 (Sirtuin 2); experiment: co-IP; 293FT cells transfected with HA-tagged AKR1C1 and Flag-tagged SIRT2, singly or in combination; precipitated by anti-Flag antibody; lysis buffer 25 mM Tris, 150 mM NaCl, 10% glycerol, 1% NP40, pH 7.4; Western blot

Molecule | binding [1] | binding [2] | binding [3]
HDAC6 from PC-9 cell lysates (from UniProt Q9UBN7 1-1215) (enzyme) | no binding |  | 
B1 |  | binds | binds
B2 | binds |  | 

Reference: paper PMC7019158
